Experimental findings from article doi:10.1101/2020.06.10.144725 (bioRxiv, 2020) are described below.

Chains of the proteins cited; added tags and fusions are not shown.
UniProt O15169, whole entry: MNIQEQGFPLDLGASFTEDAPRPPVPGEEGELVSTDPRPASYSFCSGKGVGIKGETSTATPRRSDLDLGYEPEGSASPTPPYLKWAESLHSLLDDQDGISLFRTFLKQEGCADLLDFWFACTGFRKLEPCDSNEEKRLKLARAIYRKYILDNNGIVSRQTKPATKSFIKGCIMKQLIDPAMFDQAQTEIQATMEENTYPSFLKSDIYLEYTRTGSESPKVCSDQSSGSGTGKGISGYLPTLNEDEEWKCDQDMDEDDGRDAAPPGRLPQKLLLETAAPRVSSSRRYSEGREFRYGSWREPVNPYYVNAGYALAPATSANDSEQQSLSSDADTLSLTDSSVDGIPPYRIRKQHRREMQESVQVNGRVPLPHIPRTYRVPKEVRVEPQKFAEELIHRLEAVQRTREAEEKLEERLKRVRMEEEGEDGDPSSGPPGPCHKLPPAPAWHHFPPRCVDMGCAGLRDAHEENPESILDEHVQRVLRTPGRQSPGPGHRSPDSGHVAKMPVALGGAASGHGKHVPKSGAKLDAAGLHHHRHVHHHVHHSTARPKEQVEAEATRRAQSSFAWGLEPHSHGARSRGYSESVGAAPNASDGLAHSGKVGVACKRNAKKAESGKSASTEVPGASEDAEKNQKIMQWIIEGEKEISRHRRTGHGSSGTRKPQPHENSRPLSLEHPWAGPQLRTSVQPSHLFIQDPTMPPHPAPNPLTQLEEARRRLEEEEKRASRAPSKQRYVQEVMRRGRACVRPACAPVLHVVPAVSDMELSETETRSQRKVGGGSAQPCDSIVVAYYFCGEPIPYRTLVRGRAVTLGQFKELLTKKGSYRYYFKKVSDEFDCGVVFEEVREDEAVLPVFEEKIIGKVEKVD
UniProt Q9Y2T1, whole entry: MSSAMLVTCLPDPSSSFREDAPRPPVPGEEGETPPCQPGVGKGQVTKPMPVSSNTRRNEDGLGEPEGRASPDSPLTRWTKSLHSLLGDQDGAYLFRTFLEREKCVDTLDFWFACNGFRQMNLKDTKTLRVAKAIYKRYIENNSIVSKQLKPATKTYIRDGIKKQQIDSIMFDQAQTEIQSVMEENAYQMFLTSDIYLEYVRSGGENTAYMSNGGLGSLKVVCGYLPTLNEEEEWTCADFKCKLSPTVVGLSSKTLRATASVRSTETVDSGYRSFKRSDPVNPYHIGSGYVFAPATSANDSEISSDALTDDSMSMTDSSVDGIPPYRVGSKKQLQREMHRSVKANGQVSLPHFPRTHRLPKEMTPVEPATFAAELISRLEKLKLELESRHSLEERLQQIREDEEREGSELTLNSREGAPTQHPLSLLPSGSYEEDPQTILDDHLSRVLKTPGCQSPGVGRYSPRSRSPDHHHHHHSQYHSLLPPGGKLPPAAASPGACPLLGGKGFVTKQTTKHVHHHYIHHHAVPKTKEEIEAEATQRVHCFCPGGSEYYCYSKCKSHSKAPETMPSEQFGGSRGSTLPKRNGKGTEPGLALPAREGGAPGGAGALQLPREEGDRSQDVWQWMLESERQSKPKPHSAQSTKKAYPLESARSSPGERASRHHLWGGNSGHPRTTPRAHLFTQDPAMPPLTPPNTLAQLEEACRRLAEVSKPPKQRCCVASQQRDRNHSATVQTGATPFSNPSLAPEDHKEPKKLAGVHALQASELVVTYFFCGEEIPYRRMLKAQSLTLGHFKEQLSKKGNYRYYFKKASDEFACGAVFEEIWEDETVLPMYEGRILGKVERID

No constants are given. Whether binding was seen depends on the method and setting. For part of these data: In cells and extracts the contact can be indirect. Some entries that bind do so weakly or less than the wild type. For part of these data: Sequences can lack the tags named with a protein.

Assay [1] concerns the target T1, RFP-NKD1-EF (human) (UniProt Q969G9).
T1 sequence: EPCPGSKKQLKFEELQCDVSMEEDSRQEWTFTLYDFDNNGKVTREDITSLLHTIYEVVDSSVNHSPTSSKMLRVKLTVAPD
The experiment in a line: SEC-MALS. A general note: SEC sorts molecules by how far they enter the pores of the column.

Assay [2] concerns the target Flag-Axin1 (UniProt O15169). The experiment in a line: co-IP.
Assay [3] has as its target Flag-Axin2 (UniProt Q9Y2T1). The experiment in a line: co-IP.
In assay [4] the target is Flag-p62 (UniProt Q13501). The experiment in a line: co-IP.
For assay [5], the target named is HA-Nkd1 (murine Nkd1, wild type) (murine) (UniProt Q99MH6). The experiment in a line: SDS-resistant high-molecular weight aggregates on Western blot.
Assay [6] has as its target Axin1-GFP (UniProt O15169). The experiment in a line: co-IP.

B1: Lip-DVL2-PDZ (domain or fragment, UniProt O14641 285-373)
chain: QSNERGDGGIYIGSIMKGGAVAADGRIEPGDMLLQVNDMNFENMSNDDAVRVLRDIVHKPGPIVLTVAKCWDPSPQAYFTLPRNEPIQP
As for B1, the binding result in assay [1] was “binds”.

B2: HA-Nkd1 (murine Nkd1, wild type) (protein, UniProt Q99MH6 1-471)
chain: MGKLHSKPAAVCKRRESPEGDSFAVSAAWARKGIEEWIGRQRCPGSVSGPRQLRLAGTVGRGTRELVGDTSREALGEEDEDDFPLEVALPPEKIDSLGSGDEKRMERLSEPGQASKKQLKFEELQCDVSVEEDSRQEWTFTLYDFDNNGKVTREDITSLLHTIYEVVDSSVNHSPTSSKTLRVKLTVAPDGSQSKRSVLFNHTDLQSTRPRADTKPAEELRGWEKKQRAPLRFQGDSHLEQPDCYHHCVDENIERRNHYLDLAGIENYTSQFGPGSPSVAQKSELPPRISNPTRSRSHEPEAAHIPHRRPQGVDPGSFHLLDTPFAKASELQQRLRGTQDGSKHFVRSPKAQGKNMGMGHGARGARSKPPLVPTTHTVSPSAHLATSPALLPTLAPLGHKKHKHRAKESQASCRGLQGPLAAGGSTVMGREQVRELPAVVVYESQAGQAVQRHEHHHHHEHHHHYHHFYQP
Regarding B2, the binding entry is on record as “binds” in assay [2], “no binding” in assay [3], “binds” in assay [4] and “binds” in assay [5].

B3: Flag-Nkd1 (protein, UniProt Q99MH6 1-471)
chain: B2 chain
Regarding B3, the binding entry in assay [6] is “binds”.
